In PMC10531764:
The exact form of at least one protein or probe is not confirmed. For part of these data: Results from cells or extracts need not show a direct contact. Tags and fusion partners may be left off the protein sequences shown. For part of these data: At least one verdict rests on a figure or table, not on a statement of the authors.

Assays:
Assay in all cases: EMSA
[1] = biological target: T1, recombinant IRP1 (rIRP1) (UniProt P21399); conditions: REMSA with excess probe; cooled non-denaturing 8% polyacrylamide gel in 0.25x TBE; binding buffer, pH and temperature not given (refers to ref 40); recombinant protein
T1 sequence (looked up, limits assumed): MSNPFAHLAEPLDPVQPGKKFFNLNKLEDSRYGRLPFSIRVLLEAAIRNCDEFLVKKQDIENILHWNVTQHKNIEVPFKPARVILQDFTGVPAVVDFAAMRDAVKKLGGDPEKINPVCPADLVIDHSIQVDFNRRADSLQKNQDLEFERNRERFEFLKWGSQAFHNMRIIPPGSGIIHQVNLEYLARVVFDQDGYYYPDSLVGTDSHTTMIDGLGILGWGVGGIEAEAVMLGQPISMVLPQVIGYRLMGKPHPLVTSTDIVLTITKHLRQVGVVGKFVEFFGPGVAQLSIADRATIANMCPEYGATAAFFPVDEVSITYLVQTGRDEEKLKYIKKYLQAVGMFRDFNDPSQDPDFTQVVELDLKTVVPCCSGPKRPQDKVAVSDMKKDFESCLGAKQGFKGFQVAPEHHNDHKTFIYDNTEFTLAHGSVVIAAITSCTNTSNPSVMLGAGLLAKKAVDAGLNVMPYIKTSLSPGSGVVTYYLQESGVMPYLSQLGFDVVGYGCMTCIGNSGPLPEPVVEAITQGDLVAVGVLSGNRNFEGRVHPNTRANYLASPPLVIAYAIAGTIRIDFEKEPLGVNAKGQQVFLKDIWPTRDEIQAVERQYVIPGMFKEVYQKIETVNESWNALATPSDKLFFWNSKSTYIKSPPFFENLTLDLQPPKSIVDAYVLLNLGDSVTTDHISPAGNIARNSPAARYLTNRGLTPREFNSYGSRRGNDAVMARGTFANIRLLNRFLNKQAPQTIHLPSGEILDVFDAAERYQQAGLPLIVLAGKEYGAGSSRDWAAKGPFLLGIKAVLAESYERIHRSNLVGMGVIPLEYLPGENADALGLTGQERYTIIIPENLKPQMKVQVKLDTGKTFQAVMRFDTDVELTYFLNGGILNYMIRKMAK

[2] = biological target: T2, IRP1 in AML blast lysate (human) (UniProt P21399); conditions: AML blast lysates, excess probe; REMSA with excess probe; cooled non-denaturing 8% polyacrylamide gel in 0.25x TBE; binding buffer, pH and temperature not given (refers to ref 40); protein in an extract
T2 sequence (looked up, limits assumed): T1 sequence (looked up, limits assumed)

[3] = biological target: T3, recombinant IRP2 (UniProt P48200); conditions: REMSA with excess probe; cooled non-denaturing 8% polyacrylamide gel in 0.25x TBE; binding buffer, pH and temperature not given (refers to ref 40); recombinant protein
T3 sequence (looked up, limits assumed): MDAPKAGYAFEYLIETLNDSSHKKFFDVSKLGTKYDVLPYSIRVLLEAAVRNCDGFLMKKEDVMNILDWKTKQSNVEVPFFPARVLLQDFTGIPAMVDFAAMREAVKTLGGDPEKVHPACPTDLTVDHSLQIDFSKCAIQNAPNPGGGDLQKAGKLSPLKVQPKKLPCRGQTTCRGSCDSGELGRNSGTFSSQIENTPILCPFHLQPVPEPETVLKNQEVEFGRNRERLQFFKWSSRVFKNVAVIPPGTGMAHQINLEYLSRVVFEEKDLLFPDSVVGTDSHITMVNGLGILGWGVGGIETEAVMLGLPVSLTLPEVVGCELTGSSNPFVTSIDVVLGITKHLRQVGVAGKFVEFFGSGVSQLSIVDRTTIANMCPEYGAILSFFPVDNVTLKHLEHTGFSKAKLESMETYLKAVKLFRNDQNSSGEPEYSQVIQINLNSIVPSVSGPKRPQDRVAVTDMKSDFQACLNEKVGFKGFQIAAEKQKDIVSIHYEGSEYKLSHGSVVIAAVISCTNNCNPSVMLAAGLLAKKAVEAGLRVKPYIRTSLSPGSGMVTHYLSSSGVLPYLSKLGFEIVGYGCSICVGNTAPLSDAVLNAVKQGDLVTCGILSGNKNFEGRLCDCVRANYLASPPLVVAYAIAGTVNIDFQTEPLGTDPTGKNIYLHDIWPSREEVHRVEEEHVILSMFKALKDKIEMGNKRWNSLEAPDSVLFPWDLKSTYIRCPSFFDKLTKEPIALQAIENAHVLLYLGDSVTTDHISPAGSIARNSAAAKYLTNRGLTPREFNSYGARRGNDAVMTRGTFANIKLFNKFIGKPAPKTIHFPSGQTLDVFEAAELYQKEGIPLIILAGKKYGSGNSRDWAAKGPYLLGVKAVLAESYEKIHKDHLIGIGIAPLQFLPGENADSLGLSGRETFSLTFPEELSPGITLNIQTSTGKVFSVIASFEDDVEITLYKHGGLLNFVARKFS

Measured: binding result

GGUUUCCUGCUUCAACAGUGCUUGGACGGAACCC [human ferritin H IRE probe]
binds: all assays above
